Measured values published in publication PMC10656311, “Evaluation of the probable synergistic toxicity of selected potentiated antiretroviral and antibiotics on some aquatic biomarker organisms” (Environmental Monitoring and Assessment, 2023).
Like-named read-outs stand apart in the source and are kept apart here.

Experiments:
[1] = test system: root tip meristem cells of Allium cepa; test: Allium cepa root tip microscopic examination (chromosomal aberrations); format: cell-based
Experimental: (§1) Whole-onions test specimens were grown at room temperature (in triplicate). The onions were initially grown for 2 days in tap water. Prior to growing them in tap water, the ring of the root, the primordia at the bottom of the onion bulb, was scraped with a sterile surgical blade to remove all existing root growth. After 2 days of tap water exposure, the lengths of the root fibers of each onion were measured and recorded. This was followed by exposure to the test solutions for another 2 days (tap water was used as the control). […] At the end of the exposure, the onion roots were cut 3 cm from the tip and placed in Carnoy’s fixative solution ([…] (Merck, Germany)) until further microscopic analysis.
This was followed by washing the root tips in distilled water, after which they were stained using Feulgen stain for 2–3 min. The stained root tips were then rinsed in distilled water, transferred onto clean glass microscope slides, and counter-stained with acetocarmine. […] The squashed onion root tips were thereafter imaged using a LEICA DM-750 light microscope at × 400 and × 1000 magnifications.
Microscopic evaluation of Allium cepa cells during mitosis was conducted to ascertain the impacts the L, C, and S test samples (lone and mixtures) will have on the genetic materials of the onion roots at cellular levels.

[2] = test system: Salmonella typhimurium TA100 P450; test: Ames mutagenicity test (agar plate method), strain TA100 P450; format: cell-based; details: TA 100 P450; for Number of revertant colonies per plate, NR 1: plate 1; for Number of revertant colonies per plate, NR 2: plate 2; for Number of revertant colonies per plate, NR3: plate 3
Experimental: (§2) Bacterial growth was confirmed by visual turbidity inspection. […] All experiments were carried out in triplicate.

Allium cepa = Allium cepa root length assay (phytotoxic inhibition of root growth); format: in vivo
Experimental: as §1
The test APCs and their mixtures in different combinations were investigated for their phytotoxic characteristics at 10 µg/L and 100 µg/L concentrations, using A. cepa bioassays. The root length assay relies on evaluating the root length of A. cepa as an indicator endpoint to assess the susceptibility of plants exposed to xenobiotics by evaluating physical impacts on their root growth. The ratio between the root length (mm) (RRL) after and before exposure to test solutions ( ^RLAERLBE ) was used as indices for the APCs’ phytotoxicity.

[3] = test system: Salmonella typhimurium TA98 P450; format: cell-based; details: for Number of revertant colonies per plate, NR 1: plate 1; for Number of revertant colonies per plate, NR 2: plate 2
Experimental: as §2

Daphnia magna = details: toxic unit of the constituent in the LCS mixture

Row | Compound | A. cepa root exposure C.A (chromosomal aberration) ([1]; 10 µg/L) | A. cepa root exposure C.A (chromosomal aberration) ([1]; 100 µg/L) | Number of revertant colonies per plate, Mean ([2]; 10 µg/L) | Number of revertant colonies per plate, NR 1 ([2]; 10 µg/L) | Number of revertant colonies per plate, NR 2 ([2]; 10 µg/L) | Number of revertant colonies per plate, NR3 ([2]; 10 µg/L) | Number of revertant colonies per plate, Mean ([2]; 100 µg/L) | Number of revertant colonies per plate, NR 1 ([2]; 100 µg/L) | Number of revertant colonies per plate, NR 2 ([2]; 100 µg/L) | Number of revertant colonies per plate, NR3 ([2]; 100 µg/L) | A. cepa root exposure R.L (Allium cepa; 10 µg/L) | A. cepa root exposure R.L (Allium cepa; 100 µg/L) | Number of revertant colonies per plate, Mean ([3]; 10 µg/L) | Number of revertant colonies per plate, NR 1 ([3]; 10 µg/L) | Number of revertant colonies per plate, NR 2 ([3]; 10 µg/L) | Number of revertant colonies per plate, NR 1 ([3]; 100 µg/L) | Number of revertant colonies per plate, NR 2 ([3]; 100 µg/L) | Toxic unit 24 hrs (Daphnia magna) | Toxic unit 48 hrs (Daphnia magna; 48 h)
1 | Cc1cc(NS(=O)(=O)c2ccc(N)cc2)no1 [Sulfamethoxazole, sulfamethoxazole] | - | + | 257 | 270 | 230 | 270 | 250 | 310 | 220 | 220 | - | - | 13 | 21 | 14 | 24 | 20 | 0.38 | 1.17
2 | O=C(O)c1cn(C2CC2)c2cc(N3CCNCC3)c(F)cc2c1=O [Ciprofloxacin, ciprofloxacin] | - | + |  |  | 220 |  |  |  |  |  | - | - |  |  |  |  |  | 0.38 | 
